Construct, isoform or probe ends are uncertain for at least one entry.

Chains of the proteins cited; added tags and fusions are not shown. Lines headed by an entry give the natural chain unless they say otherwise; changes in a name come on top.
UniProt Q7Z2W4: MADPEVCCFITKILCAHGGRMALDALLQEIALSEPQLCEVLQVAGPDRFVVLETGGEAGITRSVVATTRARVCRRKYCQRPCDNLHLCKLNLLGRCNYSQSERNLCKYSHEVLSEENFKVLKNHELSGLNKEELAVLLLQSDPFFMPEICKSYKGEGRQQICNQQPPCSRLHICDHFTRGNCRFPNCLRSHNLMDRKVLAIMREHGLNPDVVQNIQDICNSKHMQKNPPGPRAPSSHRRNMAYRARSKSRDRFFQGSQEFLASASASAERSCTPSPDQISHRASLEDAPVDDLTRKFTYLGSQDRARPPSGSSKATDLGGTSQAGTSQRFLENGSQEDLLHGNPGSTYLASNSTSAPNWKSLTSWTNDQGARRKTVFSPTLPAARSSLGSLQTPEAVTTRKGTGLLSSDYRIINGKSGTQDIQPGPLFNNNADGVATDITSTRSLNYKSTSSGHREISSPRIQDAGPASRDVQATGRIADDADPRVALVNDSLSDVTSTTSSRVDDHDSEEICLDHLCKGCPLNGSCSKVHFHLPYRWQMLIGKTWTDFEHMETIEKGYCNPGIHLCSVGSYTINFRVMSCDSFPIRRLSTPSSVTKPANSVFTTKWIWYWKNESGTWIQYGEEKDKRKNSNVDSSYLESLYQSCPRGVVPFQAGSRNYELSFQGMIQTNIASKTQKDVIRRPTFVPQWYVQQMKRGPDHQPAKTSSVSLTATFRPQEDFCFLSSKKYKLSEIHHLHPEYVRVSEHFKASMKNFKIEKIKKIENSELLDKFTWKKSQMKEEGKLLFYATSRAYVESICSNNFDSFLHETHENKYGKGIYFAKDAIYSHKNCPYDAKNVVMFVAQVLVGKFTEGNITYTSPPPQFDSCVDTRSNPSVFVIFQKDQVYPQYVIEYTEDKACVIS

This series addresses PARP13.1 (ZAP, ZC3HAV1 long isoform) (Homo sapiens) (UniProt Q7Z2W4). The series can be described thus: EMSA. Particulars: 10 mM Tris pH 7.5, 1 mM EDTA, 0.1 M KCl, 0.1 mM DTT, 5% glycerol, 0.1 ug/ml tRNA, 20 C, 1 h; Hill fit; purified recombinant protein; label: 5'-32P. On the technique in general: In EMSA bound probe runs differently from free probe, usually more slowly.

A word on the Kd: it is the concentration at which binding is half-saturated. As to “UCCUACUAGUCCUGACUGCUUAGACAAAGUCAUAGAUUAUGUUCCAGGCAUUUUCCAAGAAAACAGUUUUACAAUCCAAUACAUUCUGGACACCAGUGAUAAGCUGAGUACUGAGCUCUUUCAGGACAAAAGUGAAGAGGCUUCCCUUGACCUCGUGUUUGAGCUGGUGAACCAGUUGCAGUACCACACUCACCAAGAGAACGGAAUUGAAAUUUGCAUGGACUUUCUGCAAGGCACUUGUAUUUAUGGCAGGGAUUGUUUGAAGCACCACACUGUCUUGCCAUAUCAUUGGCAGAUCAAAAGGACAACUACUCAAAAGUGGCAGAGUGUAUUCAAUGAUUCUCAGGAGCACUUGGAAAGAUUUUACUGUAACCCAGAAAAUGAUAGAAUGAGAAUGAAGUAUGGAGGACAAGAAUUUUGGGCAGAUUUGAAUGCCAUGAACGUGUAUGAAACAACUGAAUUUGACCAACUACGAAGGCUGUCCACACCACCCUCUAGCAAUGUCAACUCUAUUUACCACACAGUCUGGAAAUUCUUCUGUAGGGACCACUUUGGAUGGAGAGAGUAUCCCGAGUCUGUCAUUCGAUUGAUUGAAGAAGC [TRAILR4 3'UTR Fragment E (nt 516-1115)]”, the dissociation constant (Kd) is 123 nM.
